Reference: the supplement of paper PMC4604168 (melanoma cell lines)
The other results are listed elsewhere or left out. Many values rest on one well or one pass, so single values are uncertain.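 Cells were imaged in 1,536-well plates, and nuclei stained with an antibody against cleaved PARP were counted against all DNA-stained nuclei to give the apoptosis fraction. Screening doses were chosen to leave most cells alive, and resting and induced cleaved-PARP levels differ strongly between cell lines.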

Experiments:
Experiment in all cases: cleaved PARP positive nuclei fraction relative to DMSO control; melanoma cells; higher = more apoptosis
Details in all cases: library dose: low library concentration; 72 h
COLO792 = test system: COLO792
COLO800 = test system: COLO800
COLO829 = test system: COLO829
G361 = test system: G361
IPC-298 = test system: IPC-298
IST-MEL1 = test system: IST-MEL1
LB2518-MEL = test system: LB2518-MEL
LOXIMVI = test system: LOXIMVI

SMILES | cleaved PARP positive nuclei fraction (COLO792) [%] | cleaved PARP positive nuclei fraction (COLO800) [%] | cleaved PARP positive nuclei fraction (COLO829) [%] | cleaved PARP positive nuclei fraction (G361) [%] | cleaved PARP positive nuclei fraction (IPC-298) [%] | cleaved PARP positive nuclei fraction (IST-MEL1) [%] | cleaved PARP positive nuclei fraction (LB2518-MEL) [%] | cleaved PARP positive nuclei fraction (LOXIMVI) [%]
C[C@]12O[C@H](C[C@]1(O)CO)n1c3ccccc3c3c4c(c5c6ccccc6n2c5c31)CNC4=O [Lestaurtinib] + Cn1cc(/C=C2\C(=O)Nc3cccnc32)c2ccccc21 [GW441756] (first compound 0.004 µM, partner dose 0.4 µM) | 86.6 | 134 | 40.6 | 69.6 | 95.8 | 118 | 68.4 | 90.9
O=C(O)[C@@H]1[O][Sb](=[O])([O][Sb]2(=[O])[O][C@H]([C@H](O)CO)[C@H](O)[C@H](C(=O)O)[O]2)[O][C@H]([C@H](O)CO)[C@@H]1O (some centres undefined) [stibogluconate] + Cc1cc(SCc2sc(-c3ccc(C(F)(F)F)c(F)c3)nc2C)ccc1OCC(=O)O [GW0742] (first compound 2 µM, partner dose 2 µM) | 68.4 | 97.9 | 72 | 334 | 44.2 | 86.2 | 65.7 | 152
Cn1cc(C2=C(c3cn(C4CCN(Cc5ccccn5)CC4)c4ccccc34)C(=O)NC2=O)c2ccccc21 [Enzastaurin] + O=C(Nc1ccccc1)c1cc([N+](=O)[O-])ccc1Cl [GW9662] (first compound 0.8 µM, partner dose 2 µM) | 105 | 17.6 | 53.1 | 181 | 116 | 89 | 72.4 | 109
CC[C@]1(O)C[C@H]2CN(CCc3c([nH]c4ccccc34)[C@@](C(=O)OC)(c3cc4c(cc3OC)N(C=O)[C@H]3[C@@](O)(C(=O)OC)[C@H](OC(C)=O)[C@]5(CC)C=CCN6CC[C@]43[C@@H]65)C2)C1 [vincristine] + O=C(Oc1ccc([N+](=O)[O-])cc1)N1CCC(C(O)(c2ccc3c(c2)OCO3)c2ccc3c(c2)OCO3)CC1 [JZL184] (first compound 0.0001 µM, partner dose 1 µM) | 206 | 112 | 61.5 | 121 | 93 | 81.2 | 32.4 | 40.7
N#CC[C@H](C1CCCC1)n1cc(-c2ncnc3[nH]ccc23)cn1 [ruxolitinib] + O=C(Oc1ccc([N+](=O)[O-])cc1)N1CCC(C(O)(c2ccc3c(c2)OCO3)c2ccc3c(c2)OCO3)CC1 [JZL184] (first compound 1 µM, partner dose 1 µM) | 149 | 31.1 | 79.6 | 192 | 256 | 113 | 49.9 | 133
CO[C@H]1C[C@@H]2CC[C@@H](C)[C@@](O)(O2)C(=O)C(=O)N2CCCC[C@H]2C(=O)O[C@H]([C@H](C)C[C@@H]2CC[C@@H](OCCO)[C@H](OC)C2)CC(=O)[C@H](C)/C=C(\C)[C@@H](O)[C@@H](OC)C(=O)[C@H](C)C[C@H](C)/C=C/C=C/C=C/1C [everolimus] + Cc1cc(SCc2sc(-c3ccc(C(F)(F)F)c(F)c3)nc2C)ccc1OCC(=O)O [GW0742] (first compound 0.02 µM, partner dose 2 µM) | 71.1 | 79.9 | 31.3 | 117 | 60.2 | 128 | 29.9 | 154
NC(=O)c1ccc(N(C(N)=O)c2c(F)cccc2F)nc1-c1ccc(F)cc1F + O=C(Oc1ccc([N+](=O)[O-])cc1)N1CCC(C(O)(c2ccc3c(c2)OCO3)c2ccc3c(c2)OCO3)CC1 [JZL184] (first compound 0.4 µM, partner dose 1 µM) | 87.1 | 41 | 109 | 112 | 186 | 201 | 152 | 37.7
Nc1ncn([C@H]2C[C@H](O)[C@@H](CO)O2)c(=O)n1 [decitabine] + Cc1cc(SCc2sc(-c3ccc(C(F)(F)F)c(F)c3)nc2C)ccc1OCC(=O)O [GW0742] (first compound 0.1 µM, partner dose 2 µM) | 68.2 | 47.3 | 99.2 | 80.5 | 174 | 138 | 216 | 90
COc1cc([C@@H]2c3cc4c(cc3[C@@H](O[C@@H]3O[C@@H]5CO[C@@H](C)O[C@H]5[C@H](O)[C@H]3O)[C@H]3COC(=O)[C@H]23)OCO4)cc(OC)c1O [etoposide] + Cc1cc(SCc2sc(-c3ccc(C(F)(F)F)c(F)c3)nc2C)ccc1OCC(=O)O [GW0742] (first compound 0.02 µM, partner dose 2 µM) | 100 | 118 | 141 | 82.9 | 90.5 | 21.2 | 68.1 | 88.8
CC1(C)CCC(c2ccc(Cl)cc2)=C(CN2CCN(c3ccc(C(=O)NS(=O)(=O)c4ccc(N[C@H](CCN5CCOCC5)CSc5ccccc5)c(S(=O)(=O)C(F)(F)F)c4)cc3)CC2)C1 + Cc1cc(SCc2sc(-c3ccc(C(F)(F)F)c(F)c3)nc2C)ccc1OCC(=O)O [GW0742] (first compound 0.4 µM, partner dose 2 µM) | 309 | 42.1 | 117 | 165 | 309 | 173 | 85.2 | 72.8
O=C(/C=C/c1cccnc1)NCCCCC1CCN(C(=O)c2ccccc2)CC1 + Cc1cc(SCc2sc(-c3ccc(C(F)(F)F)c(F)c3)nc2C)ccc1OCC(=O)O [GW0742] (first compound 0.01 µM, partner dose 2 µM) | 615 | 408 | 287 | 3060 | 731 | 25.9 | 88.3 | 72.5
Cn1cc(C2=C(c3cn(C4CCN(Cc5ccccn5)CC4)c4ccccc34)C(=O)NC2=O)c2ccccc21 [Enzastaurin] + CCCCCCCCCCCC1=C(O)C(=O)C=C(O)C1=O [Embelin] (first compound 0.8 µM, partner dose 1.2 µM) | 115 | 41.1 | 76.5 | 40 | 66.4 | 147 | 31.6 | 177
N.N.[Cl][Pt][Cl] [cisplatin] + c1cc(-c2cnn3cc(-c4ccc(OCCN5CCCCC5)cc4)cnc23)ccn1 [Dorsomorphin] (first compound 1.6 µM, partner dose 0.4 µM) | 81 | 110 | 127 | 161 | 38.5 | 169 | 261 | 165
CCCCCCCCCCCCCCCCCCOP(=O)([O-])OC1CC[N+](C)(C)CC1 [Perifosine] + O=C(Oc1ccc([N+](=O)[O-])cc1)N1CCC(C(O)(c2ccc3c(c2)OCO3)c2ccc3c(c2)OCO3)CC1 [JZL184] (first compound 0.4 µM, partner dose 1 µM) | 107 | 100 | 65.9 | 113 | 62.7 | 150 | 56.8 | 130
Cn1c(=O)n(-c2ccc(C(C)(C)C#N)cc2)c2c3cc(-c4cnc5ccccc5c4)ccc3ncc21 + O=C(Oc1ccc([N+](=O)[O-])cc1)N1CCC(C(O)(c2ccc3c(c2)OCO3)c2ccc3c(c2)OCO3)CC1 [JZL184] (first compound 0.004 µM, partner dose 1 µM) | 111 | 42.9 | 128 | 107 | 93.9 | 108 | 99.1 | 123
N.N.[Cl][Pt][Cl] [cisplatin] + N#Cc1c(O)c2c(-c3ccc(-c4ccccc4O)cc3)csc2[nH]c1=O [A769662] (first compound 1.6 µM, partner dose 2 µM) | 103 | 84.8 | 48.8 | 88.8 | 87.4 | 55.2 | 34.9 | 162
CS(=O)(=O)CCNCc1ccc(-c2ccc3ncnc(Nc4ccc(OCc5cccc(F)c5)c(Cl)c4)c3c2)o1 [lapatinib] + O=C(Oc1ccc([N+](=O)[O-])cc1)N1CCC(C(O)(c2ccc3c(c2)OCO3)c2ccc3c(c2)OCO3)CC1 [JZL184] (first compound 0.8 µM, partner dose 1 µM) | 55.2 | 131 | 74.2 | 46.2 | 60.8 | 116 | 32.2 | 16.8
Cc1cc(Nc2cc(N3CCN(C)CC3)nc(/C=C/c3ccccc3)n2)n[nH]1 + O=C(Oc1ccc([N+](=O)[O-])cc1)N1CCC(C(O)(c2ccc3c(c2)OCO3)c2ccc3c(c2)OCO3)CC1 [JZL184] (first compound 0.04 µM, partner dose 1 µM) | 104 | 23.9 | 76.1 | 129 | 87.7 | 53.6 | 62.3 | 163
Nc1ccn([C@@H]2O[C@H](CO)[C@@H](O)C2(F)F)c(=O)n1 [gemcitabine] + O=C(Oc1ccc([N+](=O)[O-])cc1)N1CCC(C(O)(c2ccc3c(c2)OCO3)c2ccc3c(c2)OCO3)CC1 [JZL184] (first compound 0.0004 µM, partner dose 1 µM) | 202 | 244 | 207 | 131 | 64.3 | 143 | 82.8 | 122
O=c1[nH]nc(Sc2ncc([N+](=O)[O-])s2)n1-c1ccc2c(c1)OCCO2 + O=C(Oc1ccc([N+](=O)[O-])cc1)N1CCC(C(O)(c2ccc3c(c2)OCO3)c2ccc3c(c2)OCO3)CC1 [JZL184] (first compound 0.2 µM, partner dose 1 µM) | 151 | 141 | 59.9 | 113 | 185 | 97.8 | 64.2 | 57.4
N.N.[Cl][Pt][Cl] [cisplatin] + O=C(Nc1ccccc1)c1cc([N+](=O)[O-])ccc1Cl [GW9662] (first compound 1.6 µM, partner dose 2 µM) | 184 | 42.1 | 107 | 214 | 60.2 | 346 | 37.1 | 48.1
COc1cc([C@@H]2c3cc4c(cc3[C@@H](O[C@@H]3O[C@@H]5CO[C@@H](C)O[C@H]5[C@H](O)[C@H]3O)[C@H]3COC(=O)[C@H]23)OCO4)cc(OC)c1O [etoposide] + C/C(O)=C(\C#N)C(=O)Nc1cc(Br)ccc1Br [LFM-A13] (first compound 0.02 µM, partner dose 2 µM) | 123 | 39.3 | 120 | 69.7 | 82.6 | 104 | 153 | 98.4
C=C(c1ccc(C(=O)O)cc1)c1cc2c(cc1C)C(C)(C)CCC2(C)C [Bexarotene] + C/C(O)=C(\C#N)C(=O)Nc1cc(Br)ccc1Br [LFM-A13] (first compound 2 µM, partner dose 2 µM) | 203 | 46.6 | 64 | 91.1 | 88.4 | 105 | 57.2 | 220
COc1cc([C@@H]2c3cc4c(cc3[C@@H](O[C@@H]3O[C@@H]5CO[C@@H](C)O[C@H]5[C@H](O)[C@H]3O)[C@H]3COC(=O)[C@H]23)OCO4)cc(OC)c1O [etoposide] + O=C(Oc1ccc([N+](=O)[O-])cc1)N1CCC(C(O)(c2ccc3c(c2)OCO3)c2ccc3c(c2)OCO3)CC1 [JZL184] (first compound 0.02 µM, partner dose 1 µM) | 104 | 128 | 68.8 | 106 | 101 | 118 | 232 | 101
CCCS(=O)(=O)Nc1ccc(F)c(C(=O)c2c[nH]c3ncc(Cl)cc23)c1F + C/C(O)=C(\C#N)C(=O)Nc1cc(Br)ccc1Br [LFM-A13] (first compound 0.08 µM, partner dose 2 µM) | 102 | 157 | 89.5 | 63 | 133 | 94.3 | 66.2 | 39.1
O=C(O)[C@@H]1[O][Sb](=[O])([O][Sb]2(=[O])[O][C@H]([C@H](O)CO)[C@H](O)[C@H](C(=O)O)[O]2)[O][C@H]([C@H](O)CO)[C@@H]1O (some centres undefined) [stibogluconate] + C/C(O)=C(\C#N)C(=O)Nc1cc(Br)ccc1Br [LFM-A13] (first compound 2 µM, partner dose 2 µM) | 155 | 24.2 | 138 | 85.3 | 125 | 233 | 66.7 | 182
CS(=O)(=O)c1ccc(C(=O)Nc2ccc(Cl)c(-c3ccccn3)c2)c(Cl)c1 [vismodegib] + O=C(Oc1ccc([N+](=O)[O-])cc1)N1CCC(C(O)(c2ccc3c(c2)OCO3)c2ccc3c(c2)OCO3)CC1 [JZL184] (first compound 1 µM, partner dose 1 µM) | 89.9 | 46.8 | 137 | 168 | 226 | 236 | 31.9 | 24.8
Cn1c(=O)n(-c2ccc(C(C)(C)C#N)cc2)c2c3cc(-c4cnc5ccccc5c4)ccc3ncc21 + C/C(O)=C(\C#N)C(=O)Nc1cc(Br)ccc1Br [LFM-A13] (first compound 0.004 µM, partner dose 2 µM) | 80.6 | 92.3 | 122 | 136 | 96.2 | 92.5 | 69.3 | 255

A second format for some results above.
SMILES	cleaved PARP positive nuclei fraction (COLO792) [%]	cleaved PARP positive nuclei fraction (COLO800) [%]	cleaved PARP positive nuclei fraction (COLO829) [%]	cleaved PARP positive nuclei fraction (G361) [%]	cleaved PARP positive nuclei fraction (IPC-298) [%]	cleaved PARP positive nuclei fraction (IST-MEL1) [%]	cleaved PARP positive nuclei fraction (LB2518-MEL) [%]	cleaved PARP positive nuclei fraction (LOXIMVI) [%]
N.N.[Cl][Pt][Cl] [cisplatin] + O=C(Nc1ccccc1)c1cc([N+](=O)[O-])ccc1Cl [GW9662] (first compound 1.6 µM, partner dose 2 µM)	184	42.1	107	214	60.2	346	37.1	48.1
O=C(O)[C@@H]1[O][Sb](=[O])([O][Sb]2(=[O])[O][C@H]([C@H](O)CO)[C@H](O)[C@H](C(=O)O)[O]2)[O][C@H]([C@H](O)CO)[C@@H]1O (some centres undefined) [stibogluconate] + C/C(O)=C(\C#N)C(=O)Nc1cc(Br)ccc1Br [LFM-A13] (first compound 2 µM, partner dose 2 µM)	155	24.2	138	85.3	125	233	66.7	182
